# Laboratory results as given in patent publication US20140363530A1, “COMPOSITION COMPRISING THE EXTRACT OF PINE TREE LEAF OR THE COMPOUNDS ISOLATED THEREFROM FOR THE PREVENTION AND TREATMENT OF CANCER DISEASE BY INHIBITING HPV VIRUS AND THE USES THEREBY” (priority 2012, published 2014).
# Columns and labels:
# [1] = system: MES-SA/DX5 (multidrug resistant carcinoma subline of MES-SA); experiment: SRB cytotoxicity test, MES-SA/DX5; assay type: cell-based, human; settings: for Ratio* (MES-SA/DX5 value divided by MES-SA value): Table 4
# Description: To determine the cytotoxicity against human tumor cell line of the test samples prepared in Examples, following sulforhodamin B (SRB) bioassy test was performed according to the method disclosed in the literature (Skehan, P., et al., J. Natl. Cancer Inst., 82, 1990, 1107-1112).
# Various human tumor cell lines, i.e., A-549 (human adenocarcinoma of lung, NCI), SK-OV-3 (human ovarian tumor, NCI), SK-MEL-2 (human malignant melanoma, NCI), HCT15 (human colon adenocarcinoma, NCI), MES-SA (human uterine carcinoma, NCI) and MES-SA/DX5 (multidrug resistant carcinoma subline of MES-SA, NCI) were used in the test.
# The subcultured cell lines were detached from the surface of wall using by trypsin-EDTA solution and adjusted to various concentration of cell lines, i.e., 5×10^3 cells/well (A-549, HCT15), 1×10^4 cells/well (SK-MEL-2), 5×10^3 cells/well (SK-OV-3) in 96-well flat bottom microplate. The inoculated cell lines were incubated in CO2 incubator (MCO-20AIC, SANYO Electric Co., LTd.) to be attached on the bottom of incubator and the culture media was removed with aspirator. 6 logarithmic concentrations of the diluted test samples were added to each well containing cell line at 100 μl/well in a three fold dilution manner and the cell was incubated for 48 hours. The culture media in each well was removed and 100μ of 10% trichloroacetic acid was added thereto to be left alone at 4° C. for 1 hour and to fix the cells to the bottom of the plates. […] The cell plates were shaked with titer plate shaker (KOMA Orbital Shaker KE011, KOMABIOTech) for 10 mins to exude the staining solution and to determine the absorbance at 520 nm using by microplate spectrophotometer (Sunrise, TECAN).
# HCT15/CL02 = experiment: SRB cytotoxicity test, HCT15/CL02; assay type: cell-based, human; settings: Table 4
# Description: To determine the cytotoxicity against human tumor cell line of the test samples prepared in Examples, following sulforhodamin B (SRB) bioassy test was performed according to the method disclosed in the literature (Skehan, P., et al., J. Natl. […] The inoculated cell lines were incubated in CO2 incubator (MCO-20AIC, SANYO Electric Co., LTd.) to be attached on the bottom of incubator and the culture media was removed with aspirator. 6 logarithmic concentrations of the diluted test samples were added to each well containing cell line at 100 μl/well in a three fold dilution manner and the cell was incubated for 48 hours. […] The cell plates were shaked with titer plate shaker (KOMA Orbital Shaker KE011, KOMABIOTech) for 10 mins to exude the staining solution and to determine the absorbance at 520 nm using by microplate spectrophotometer (Sunrise, TECAN).
smiles,measurement,setting,value
"C=C1CCC2[C@](C)(C(=O)O)CCC[C@]2(C)[C@H]1CC[C@H](C)CCO (stereo partly drawn) [compound (b), (13S)-15-hydroxylabd-8(17)-en-18-oic acid]",Ratio* (MES-SA/DX5 value divided by MES-SA value),[1],0.60
same,Ratio** (HCT15/CL02 value divided by HCT15 value),HCT15/CL02,0.64
"C=C1CCC2C(C)(C(=O)O)CCCC2(C)C1CCC(C)CC(=O)O (stereo not drawn) [compound (c), ent-labd-8(17)-ene-15,18-dioic acid]",Ratio** (HCT15/CL02 value divided by HCT15 value),HCT15/CL02,<0.72
"C=C1CCC2[C@](C)(C(=O)O)CCC[C@]2(C)[C@H]1/C=C/C(C)=O (some centres unmarked) [compound (d), 13-oxo-15,16-dinorlabda-8(17),11E-dien-19-oic acid]",Ratio** (HCT15/CL02 value divided by HCT15 value),HCT15/CL02,<0.92
"C[C@@]1(C(=O)O)CCC[C@]2(C)c3ccc(O)cc3CCC12 (some centres unmarked) [compound (e), 13-hydroxy-8,11,13-podocarpatrien-18-oic acid]",Ratio* (MES-SA/DX5 value divided by MES-SA value),[1],<0.86
same,Ratio** (HCT15/CL02 value divided by HCT15 value),HCT15/CL02,<0.88
"CC(C)c1ccc2c(c1)[C@H](O)CC1[C@](C)(C(=O)O)CCC[C@]21C (stereo partly drawn) [compound (f), 7α-hydroxycallitirisic acid]",Ratio* (MES-SA/DX5 value divided by MES-SA value),[1],1.02
"COc1cccc2c1C(=O)c1c(O)c3c(c(O)c1C2=O)C[C@@](O)(C(=O)CO)C[C@@H]3O[C@H]1C[C@H](N)[C@H](O)[C@H](C)O1 [doxorubicin, reference compound]",Ratio (MES-SA/DX5 value divided by MES-SA value),[1]; Table 1,2061
same,Ratio (MES-SA/DX5 value divided by MES-SA value),[1]; Table 2,2061
same,Ratio* (MES-SA/DX5 value divided by MES-SA value),[1],284.31
same,Ratio** (HCT15/CL02 value divided by HCT15 value),HCT15/CL02,131.88
